Results taken from US10889562B2, “Prodrugs of Nrf2 activating compounds and uses thereof” (Rigel Pharmaceuticals, Inc., priority 2018, dated 2021).
For at least one compound, name, drawing or mass did not settle the structure.

Assay: Glutathione depletion assay (Michael reaction with reduced glutathione followed by 1H NMR)
Conditions: 2 equiv. reduced glutathione, d6-DMSO, 35° C.
From the text: Accordingly, the present compounds may be assessed in vitro by reaction with glutathione as follows:
(with the top securely fastened).
In all the above cases, dis-appearance of the alkene proton signals from the starting material are used to determine the extent of Michael reaction with glutathione.
As would be understood by those of skill in the art, the above experiments can be repeated by varying the equivalents of reduced glutathione (0.5 to 2 equivalents); the reactions can also be run in a mixture of d6-DMSO and D2O; and the temperature of the reaction can also be varied from room temperature to 35° C. (35° C. being used to mimic body temperature). As used herein “majority reaction” means a greater than 50% reduction in alkene proton signal as observed by ^1H NMR.

COC(=O)/C=C/C(=O)O [monomethylfumarate, reference compound]
time to majority reaction with glutathione (greater than 50% reduction in alkene proton signal by 1H NMR): ≤ 27 h
